Results: patent EP4831170A1, “NITROGEN HETEROCYCLIC COMPOUND AND USE THEREOF” (dated 2026)
The structures given here were assigned with low confidence; some may be wrong.

The chains behind the UniProt entries cited, without tags or fusion partners.
UniProt P10415, whole entry: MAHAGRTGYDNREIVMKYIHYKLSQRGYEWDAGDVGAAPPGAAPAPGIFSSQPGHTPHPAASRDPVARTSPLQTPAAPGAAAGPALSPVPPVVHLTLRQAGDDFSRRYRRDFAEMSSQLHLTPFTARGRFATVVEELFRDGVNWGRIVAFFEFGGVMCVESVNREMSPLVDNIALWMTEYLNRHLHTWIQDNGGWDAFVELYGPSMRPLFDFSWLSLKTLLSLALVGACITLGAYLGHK
UniProt Q07817, whole entry: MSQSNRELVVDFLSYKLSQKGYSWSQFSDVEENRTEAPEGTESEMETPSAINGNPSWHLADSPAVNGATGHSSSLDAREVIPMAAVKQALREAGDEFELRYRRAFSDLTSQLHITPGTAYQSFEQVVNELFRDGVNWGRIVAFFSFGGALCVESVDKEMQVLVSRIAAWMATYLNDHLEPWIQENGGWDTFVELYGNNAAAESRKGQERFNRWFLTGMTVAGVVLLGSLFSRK

Tests used:
[1] = test system: senescent cells (A549 cells); test: Senescent cell viability assay (CellTiter-Glo), etoposide-induced senescent A549 cells; details: read-out: IC50 (µM, senescent cells), A549 cells made senescent with etoposide (10 µM), 72 h incubation
[2] = Kinetic solubility in PBS, LC-MS/MS; details: 100 mM PBS, 1 hour shaking at room temperature
[3] = target: BCL-2 (Homo sapiens, UniProt P10415); test: SPR affinity measurement (Biacore 8K), Bcl-2; details: read-out: KD (M) Bcl-2, 25 °C, single cycle kinetics, 1:1 model
[4] = target: BCL-XL (Homo sapiens, UniProt Q07817); test: SPR affinity measurement (Biacore 8K), Bcl-xL; details: read-out: KD (M) Bcl-xL, 25 °C, single cycle kinetics, 1:1 model
[5] = test system: animal model of osteoarthritis; test: Animal model of osteoarthritis (anterior cruciate ligament transection); details: intra-articular injection; Figure 5
[6] = test system: bleomycin-induced scleroderma model; test: Bleomycin-induced scleroderma model; details: daily topical application, 1 mg/kg; 4 weeks; Figure 3
[7] = test system: animal model of idiopathic pulmonary fibrosis (IPF); test: Animal model of idiopathic pulmonary fibrosis (bleomycin); details: IP 5 mg/kg from day 7 for 3 weeks, day 28, Figure 4
[8] = test system: oxygen-induced retinopathy (OIR) mouse model; test: Oxygen-induced retinopathy (OIR) mouse model; details: intravitreal (IVT), 1 µL of 200 µM on P12, read on P17; Figure 1
[9] = test system: rabbit ear hypertrophic scar animal model; test: Rabbit ear hypertrophic scar model; details: intralesional injection 150 µM, 100 µL, once a week, four times; Figure 6
[10] = test system: imiquimod-induced psoriasis mouse model; test: Imiquimod-induced psoriasis mouse model; details: daily topical application, 1 mg/kg; day 7; Figure 2

| SMILES | IC50 [1] [µM] | further results |
| --- | --- | --- |
| Cc1c(-c2ccc(N3CCc4ccnc(C(=O)Nc5nc6ccccc6s5)c4C3)nc2C(=O)O)cnn1Cc1cccc(C2CC2)c1 | 0.2 to 1 |  |
| O=C(O)c1nc(N2CCc3ccnc(C(=O)Nc4nc5ccccc5s4)c3C2)ccc1CCOCc1ccccc1 | 1 to 10 |  |
| Cc1c(-c2ccc(N3CCc4ccnc(C(=O)Nc5nc6ccccc6s5)c4C3)nc2C(=O)O)cnn1CC1CCC(F)(F)CC1 | < 0.2 |  |
| Cc1c(-c2ccc(N3CCc4ccnc(C(=O)Nc5nc6ccccc6s5)c4C3)nc2C(=O)O)cnn1CC1CCCCC1 | < 0.2 | Kinetic solubility [2]: 2.57 µM |
| Cc1nc(-c2ccc(N3CCc4ccnc(C(=O)Nc5nc6ccccc6s5)c4C3)nc2C(=O)O)c(C)n1CC12CC3CC(CC(C3)C1)C2 | 0.2 to 1 |  |
| Cc1c(Cc2ccccc2)ncn1-c1ccc(N2CCc3ccnc(C(=O)Nc4nc5ccccc5s4)c3C2)nc1C(=O)O | 1 to 10 |  |
| Cc1c(CC2CCCCC2)ncn1-c1ccc(N2CCc3ccnc(C(=O)Nc4nc5ccccc5s4)c3C2)nc1C(=O)O | 0.2 to 1 |  |
| O=C(O)c1nc(N2CCc3ccnc(C(=O)Nc4nc5ccccc5s4)c3C2)ccc1CCOCC12CC3CC(CC(C3)C1)C2 | 1 to 10 |  |
| Cc1cccc(Cn2ncc(-c3ccc(N4CCc5ccnc(C(=O)Nc6nc7ccccc7s6)c5C4)nc3C(=O)O)c2C)c1 | < 0.2 |  |
| O=C(O)c1nc(N2CCc3ccnc(C(=O)Nc4nc5ccccc5s4)c3C2)sc1-c1cnn(CC23CC4CC(CC(C4)C2)C3)c1 | 1 to 10 |  |
| CN(C)CC#Cc1ccc(OCCCc2sc(N3CCc4ccnc(C(=O)Nc5nc6ccccc6s5)c4C3)nc2C(=O)O)c(F)c1 | < 0.2 |  |
| Cc1c(-c2ccc(N3CCc4ccnc(C(=O)Nc5nc6ccccc6s5)c4C3)nc2C(=O)O)cnn1Cc1cc(F)cc(C(F)(F)F)c1 | < 0.2 |  |
| Cc1c(-c2ccc(N3CCc4ccnc(C(=O)Nc5nc6ccccc6s5)c4C3)nc2C(=O)O)cnn1Cc1cc(F)cc(F)c1 | < 0.2 |  |
| Cc1c(-c2ccc(N3CCc4ccnc(C(=O)Nc5nc6ccccc6s5)c4C3)nc2C(=O)O)cnn1Cc1cccc(C(F)(F)F)c1 | < 0.2 |  |
| Cc1c(-c2ccc(N3CCc4ccnc(C(=O)Nc5nc6ccccc6s5)c4C3)nc2C(=O)O)cnn1Cc1cccc(Cl)c1 | < 0.2 |  |
| Cc1c(-c2ccc(N3CCc4ccnc(C(=O)Nc5nc6ccccc6s5)c4C3)nc2C(=O)O)cnn1Cc1cc(F)cc(Cl)c1 | < 0.2 |  |
| CN(CCc1ccc(N2CCc3ccnc(C(=O)Nc4nc5ccccc5s4)c3C2)nc1C(=O)O)CC12CC3CC(CC(C3)C1)C2 | 1 to 10 |  |
| Cc1c(-c2ccc(N3CCc4ccnc(C(=O)Nc5nc6ccccc6s5)c4C3)nc2C(=O)O)cnn1Cc1cccc(OC(F)(F)F)c1 | < 0.2 |  |
| Cc1c(-c2ccc(N3CCc4ccnc(C(=O)Nc5nc6ccccc6s5)c4C3)nc2C(=O)O)cnn1Cc1ccccc1 | < 0.2 | Kinetic solubility [2]: 7.81 µM |
| Cc1c(-c2ncc(N3CCc4ccnc(C(=O)Nc5nc6ccccc6s5)c4C3)nc2C(=O)O)cnn1CC12CC3CC(CC(C3)C1)C2 | < 0.2 |  |
| Cc1c(-c2ccc(N3CCc4ccnc(C(=O)Nc5nc6ccccc6s5)c4C3)nc2C(=O)OCOC(=O)C(C)C)cnn1CC12CC3CC(CC(C3)C1)C2 | < 0.2 |  |
| Cc1c(-c2sc(N3CCc4ccnc(C(=O)Nc5nc6ccccc6s5)c4C3)nc2C(=O)O)cnn1CC12CC3CC(CC(C3)C1)C2 | 1 to 10 |  |
| Cc1c(-c2ccc(N3CCc4cncc(C(=O)Nc5nc6ccccc6s5)c4C3)nc2C(=O)N2CCC(CCO)CC2)cnn1CC12CC3CC(CC(C3)C1)C2 | 0.2 to 1 |  |

| SMILES | IC50 [1] [µM] | further results |
| --- | --- | --- |
| Cc1c(CC23CC4CC(CC(C4)C2)C3)ncn1-c1ccc(N2CCc3ccnc(C(=O)Nc4nc5ccccc5s4)c3C2)nc1C(=O)O | < 0.2 |  |
| Cc1c(CC2CCC(F)(F)CC2)ncn1-c1ccc(N2CCc3ccnc(C(=O)Nc4nc5ccccc5s4)c3C2)nc1C(=O)O | 0.2 to 1 |  |
| Cc1c(-c2ccc(N3CCc4ccnc(C(=O)Nc5nc6ccccc6s5)c4C3)nc2C(=O)O)cnn1Cc1ccccc1F | 0.2 to 1 |  |
| Cc1c(-c2ccc(N3CCc4ccnc(C(=O)Nc5nc6ccccc6s5)c4C3)nc2C(=O)O)cnn1CC1CC2(C1)CC(F)(F)C2 | 0.2 to 1 |  |
| Cc1c(-c2ccc(N3CCc4ccnc(C(=O)Nc5nc6ccccc6s5)c4C3)nc2C(=O)N2CCC(CCO)CC2)cnn1CC12CC3CC(CC(C3)C1)C2 | < 0.2 |  |
| Cc1c(-c2ccc(N3CCc4ccnc(C(=O)Nc5nc6ccccc6s5)c4C3)nc2C(=O)O)cnn1Cc1cccc(F)c1 | < 0.2 |  |
| Cc1c(-c2ccc(N3CCc4ccnc(C(=O)Nc5nc6ccccc6s5)c4C3)nc2C(=O)O)cnn1Cc1cccc(C(C)(C)C)c1 | 0.2 to 1 |  |
| Cc1c(-c2ccc(N3CCc4ccnc(C(=O)Nc5nc6ccccc6s5)c4C3)nc2C(=O)N2CCN(C)CC2)cnn1CC12CC3CC(CC(C3)C1)C2 | 0.2 to 1 |  |
| Cc1c(-c2ccc(N3CCc4ccnc(C(=O)Nc5nc6ccccc6s5)c4C3)nc2C(=O)N2CCC(CCO)CC2)cnn1Cc1cccc(C(F)(F)F)c1 | 0.2 to 1 |  |
| Cc1c(-c2ccc(N3CCc4ccnc(C(=O)Nc5nc6ccccc6s5)c4C3)nc2C(=O)N2CCNC(=O)C2)cnn1CC12CC3CC(CC(C3)C1)C2 | < 0.2 |  |
| Cc1c(-c2ccc(N3CCc4ccnc(C(=O)Nc5nc6ccccc6s5)c4C3)nc2C(=O)O)cnn1Cc1ccc(F)cc1 | < 0.2 |  |
| Cc1c(-c2ccc(N3CCc4cncc(C(=O)Nc5nc6ccccc6s5)c4C3)nc2C(=O)O)cnn1CC12CC3CC(CC(C3)C1)C2 | 0.2 to 1 | Kinetic solubility [2]: 2.07 µM |
| Cc1c(-c2ccc(N3CCc4ccnc(C(=O)Nc5nc6ccccc6s5)c4C3)nc2C(=O)O)cnn1CC1CC2(CCC2)C1 | 0.2 to 1 |  |
| O=C(O)c1nc(N2CCc3ccnc(C(=O)Nc4nc5ccccc5s4)c3C2)ccc1C1CCN(CC23CC4CC(CC(C4)C2)C3)C1 (stereo not drawn) | 1 to 10 |  |
| Cc1c(-c2ccc(N3CCc4ccnc(C(=O)Nc5nc6ccccc6s5)c4C3)nc2C(=O)N2CCC(CCOP(=O)(O)O)CC2)cnn1Cc1cccc(C(F)(F)F)c1 | < 0.2 |  |
| Cc1c(-c2ccc(N3CCc4ccnc(C(=O)Nc5nc6ccccc6s5)c4C3)nc2C(=O)O)cnn1CC12CC3CC(CC(C3)C1)C2 | < 0.2 | Kd [3]: 2.63e-08 M; Kd [4]: 1.77e-11 M; pathological score of Safranin O/Fast Green staining [5]: statistically significant improvements; plantar mechanical pain threshold [5]: statistically significant improvements; collagen fiber deposition in the skin (Masson staining) [6]: alleviated; dermal thickness [6]: significantly improved; pathology scores ([7]; H&E and Masson staining): statistically significant improvements; WBC ([7]; alveolar lavage fluid): statistically significant improvements; HYP ([7]; lung tissue): statistically significant improvements; avascular area [8]: statistically significant improvement; neovascularization [8]: statistically significant improvement; Scar Elevation Index [9]: statistically significant improvement; epidermal thickness in HE staining [10]: decreased; erythema and scaling scores [10]: reduced |
| Cc1c(-c2ccc(N3CCc4cncc(C(=O)Nc5nc6ccccc6s5)c4C3)nc2C(=O)O)cnn1Cc1cccc(C(F)(F)F)c1 | 1 to 10 |  |
| Cc1c(-c2ccc(N3CCc4ccnc(C(=O)Nc5nc6ccccc6s5)c4C3)nc2C(=O)N2CCN(CCN)CC2)cnn1CC12CC3CC(CC(C3)C1)C2 | 0.2 to 1 |  |
| Cc1c(-c2ccc(N3CCc4ccnc(C(=O)Nc5nc6ccccc6s5)c4C3)nc2C(=O)O)cnn1Cc1ccc2ccccc2c1 | 0.2 to 1 |  |
| Cc1c(-c2ccc(N3CCc4ccnc(C(=O)Nc5nc6ccccc6s5)c4C3)nc2C(=O)N2CCC(CCOP(=O)(O)O)CC2)cnn1CC12CC3CC(CC(C3)C1)C2 | < 0.2 |  |
| Cc1c(-c2ccc(N3CCc4ccnc(C(=O)Nc5nc6ccccc6s5)c4C3)nc2C(=O)O)cnn1CC12C3C4C5C3C1C5C42 (stereo not drawn) | 0.2 to 1 |  |
| Cc1c(-c2ccc(N3CCc4ccnc(C(=O)Nc5nc6ccccc6s5)c4C3)nc2C(=O)N2CCC(CO)CC2)cnn1CC12CC3CC(CC(C3)C1)C2 | < 0.2 |  |
| Cc1c(-c2ccc(N3CCc4nccc(C(=O)Nc5nc6ccccc6s5)c4C3)nc2C(=O)O)cnn1CC12CC3CC(CC(C3)C1)C2 | 1 to 10 |  |
